According to PubChem BioAssay AID1508600 (Functional Genomics Laboratory (NCATS/FGL), 2020):
In all, about 53,000 sequences went through this assay and about 3,700 (7%) were called active.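 Rule for the calls: active = gene knockdowns whose robust z-score for IL-1 alpha signal is at least 2 or at most -2, so actives lie on both sides; inactive = the rest.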 This is one part of the list.

Experiment: Components of the Cytosolic LPS Sensing Pathway: Gene Identification via Genome-wide siRNA Screen;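 note: robust z of the log signal after scaling to non-targeting control siRNA wells of the plate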
Details: RAW264.7 macrophages, IL-1a HTRF, actives lie on both sides, screened at 100 nM (by protocol), cells primed 5 h with Pam3CSK4 first
Outline: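 IL-1a HTRF of supernatants after 24 hour LipidA transfection of Pam3CSK4-primed (5 hours) RAW264.7 cells, 48h post-siRNA transfection (100 nM). Scores: percent of plate negative-control median, then log-based robust z-score.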

For GGAGUGUGCUCAAUACACATT against Psmc3ip, which z-score is on record?
Its z-score is inactive: 0.349.

Which z-score does the source give for CCAAGGGAAGAUUCAAAUUTT against Abcc8 here?
The z-score was active: 2.29.

With CCAACAGAACCAAUAAAGCTT against Btbd9 as the sequence, how does the z-score read?
The z-score was inactive: -0.354.

For CCAUGAAUGAAGAUCUGUUTT against Taar7a, which z-score is on record?
The z-score was inactive: -1.69.

With GCCUCCAGUUGUGAAGUUGTT against Klrg1 as the sequence, how does the z-score read?
Its z-score is inactive: 0.451.

For GAAAGAAACGGCAGAUUGCTT against Vmn2r122, which z-score is on record?
Its z-score is inactive: 0.133.

For GGACUUGAAAGACCUUGGATT against Map2k4, which z-score is on record?
Its z-score is inactive: 0.0565.

Which z-score does the source give for GGCCAAUAAUGUGUUUCGUTT against Cmpk2 here?
Its z-score is inactive: -0.632.

Which z-score does the source give for GCGUGAACCUCCUUCUUGATT against Ramp3 here?
The z-score was inactive: -1.29.

With GGGUUUCAACCGUCACCUGTT against Pygl as the sequence, how does the z-score read?
Its z-score is inactive: -1.89.

Which z-score does the source give for CCUCUAAAUCCUGAAGUGUTT against Gpat4 here?
Its z-score is inactive: -0.213.

Which z-score does the source give for GCAGUUCAUGUCCUGAAUATT against Olfr308 here?
The z-score was inactive: -1.49.

With GGUUAUUUAGCUAGCUUAGTT against Capza2 as the sequence, how does the z-score read?
The z-score was inactive: -0.328.

For GCUAGUUGAUAGUCAGAUATT against Tbrg4, which z-score is on record?
The z-score was inactive: 0.985.

With GCAAUCAAGCUUGAAAGUUTT against Dusp4 as the sequence, how does the z-score read?
The z-score was inactive: 0.764.

Which z-score does the source give for GGACUUAUGUGACUUAUGUTT against Plet1 here?
Its z-score is inactive: -0.585.

For GGUAUUGAGUAUCUUAGGUTT against Atf7, which z-score is on record?
The z-score was inactive: -0.543.

With GCAACACAGUAUGUACAAUTT against Dsg4 as the sequence, how does the z-score read?
Its z-score is inactive: 1.36.

Which z-score does the source give for CGUAGGUUUUAUAACAUGUTT against Tead3 here?
The z-score was inactive: 0.264.

With CCUUCACAUAAGUUUCUGUTT against Nuak2 as the sequence, how does the z-score read?
The z-score was inactive: 0.575.

With GCUGCAUCGACAUAUCAGATT against Tle2 as the sequence, how does the z-score read?
Its z-score is inactive: 0.628.

Which z-score does the source give for CGAAUUAUGGCACCGUCAATT against P2rx7 here?
The z-score was inactive: -0.647.

Which z-score does the source give for GGGAUAAUGCAUGUGAAAATT against Pdk3 here?
Its z-score is inactive: -0.292.

With GGCUGAGUGAAUUGGGAAUTT against Olfr419 as the sequence, how does the z-score read?
Its z-score is inactive: 1.28.

Which z-score does the source give for CCAAUAGAGAUGCAAAUCATT against Nek6 here?
Its z-score is inactive: 0.0788.

For GGCUACAAGAGCUUGCUCUTT against Dna2, which z-score is on record?
Its z-score is inactive: 0.453.

For GGAGCUCUGUGAGAACGAUTT against Kmt5b, which z-score is on record?
The z-score was inactive: 0.672.

For CGAACAUUCGGAAAUGUCATT against Ifnb1, which z-score is on record?
Its z-score is inactive: 0.259.

For GUUUACCUCAGCUGUUUUCTT against Olfr495, which z-score is on record?
The z-score was inactive: 0.157.

Which z-score does the source give for GGACAUGAGUGUCAAUUCUTT against Fam131b here?
Its z-score is inactive: -1.02.

Which z-score does the source give for GCUCCUCCAUCAGUUAGAUTT against Ube2v2 here?
Its z-score is inactive: -1.06.

Which z-score does the source give for GGAUUCAUAAACUUGUGUGTT against Atic here?
Its z-score is inactive: 0.274.

With GGGUGUCUUACACCUUACATT against Sertad2 as the sequence, how does the z-score read?
The z-score was inactive: -1.48.

With GCGAUGAUAAGUGCCUGGUTT against Stk31 as the sequence, how does the z-score read?
Its z-score is inactive: -1.58.

With CGAAGCACAUAUCUUUGAUTT against Zfp41 as the sequence, how does the z-score read?
Its z-score is inactive: 0.444.

Which z-score does the source give for GCACACUACAACGUAUCACTT against Stpg2 here?
Its z-score is inactive: 1.31.

With GGUCUACGUAGAGGAGCUGTT against Mrpl28 as the sequence, how does the z-score read?
The z-score was inactive: 1.04.

Which z-score does the source give for CCUGUAACCAGUAUAAAUATT against Fmo3 here?
Its z-score is inactive: -0.132.

For “GGGCAAAUGAAAACAAGAATT against 4933434M16Rik”, which z-score is on record?
The z-score was inactive: -1.11.

With “GGAAACCAUUGGUUUAUAATT against 9230109A22Rik” as the sequence, how does the z-score read?
Its z-score is inactive: -0.737.

With GGGUGACCUAAUCCAGUGUTT against Neurog3 as the sequence, how does the z-score read?
The z-score was active: 2.5.

Which z-score does the source give for CGAUACAGGACCGAAGGAGTT against Fhad1 here?
The z-score was inactive: -0.196.

With GCUCAUCUCGAUUUGACUGTT against Cln3 as the sequence, how does the z-score read?
The z-score was inactive: -1.67.

Which z-score does the source give for GGAUAGCUUCCUUCAGGUGTT against Zscan22 here?
Its z-score is inactive: -0.817.

With GGAAGAGGAGGGAAGGAUCTT against Robo3 as the sequence, how does the z-score read?
The z-score was inactive: 0.378.

With GGAUGAAGUUUACCACCUGTT against Ptgir as the sequence, how does the z-score read?
Its z-score is inactive: 0.158.

With “ACCAACCUCAGUCCUUUUUTT against A530095I07Rik” as the sequence, how does the z-score read?
The z-score was inactive: -1.5.

With CCCUUAAAUCUGGAAGCAGTT against Mex3a as the sequence, how does the z-score read?
Its z-score is inactive: -1.23.

For GGUUUUCACCAAUCGGAUGTT against H2-T24, which z-score is on record?
The z-score was inactive: 0.835.

For GGCCUUGGCAAUUAUUUGUTT against Syap1, which z-score is on record?
Its z-score is inactive: -0.0759.

Which z-score does the source give for GGGAUAUUGGAGCAAAAAATT against Sbno1 here?
The z-score was inactive: -1.23.

For GGCAGAAGUUACAAAAGAATT against Selenos, which z-score is on record?
Its z-score is inactive: -1.07.

Which z-score does the source give for GCGCGAGGAAUUGAAACUCTT against Gna15 here?
The z-score was inactive: 1.18.

With GGAUUUUGACAGUCUGUGUTT against Endou as the sequence, how does the z-score read?
The z-score was inactive: -0.438.

For CCUCACGGCCUUAUAUCUCTT against Fmod, which z-score is on record?
Its z-score is inactive: -1.8.

For “GGACUUGAACUGAAAAGUUTT against D830013H23Rik”, which z-score is on record?
The z-score was inactive: 1.01.

Which z-score does the source give for GGACUGAAACUAGGUAGGGTT against Dact2 here?
The z-score was inactive: 0.138.

For GGCUUCAGUGAUGAAUGAATT against Tor1aip1, which z-score is on record?
The z-score was inactive: -0.594.

Which z-score does the source give for GGCGAGUGUGCAGAAGUUUTT against Ifi44 here?
Its z-score is inactive: 1.43.

Which z-score does the source give for GCAAGAGACCUUGUUAUAGTT against Cttnbp2nl here?
Its z-score is inactive: -0.426.

For GGAUGUGGAGAUGAAAGAGTT against Psmd3, which z-score is on record?
The z-score was inactive: -1.52.

Which z-score does the source give for “GCCUAGGUGACCUAAACUATT against D830014E11Rik” here?
Its z-score is inactive: 0.0483.

For GGUGGGAAGAGUUUCAUCATT against Tesk2, which z-score is on record?
Its z-score is inactive: 0.58.

With GGAUGAUGCUCGUUCUCAGTT against Ankar as the sequence, how does the z-score read?
The z-score was inactive: -0.248.

For GGAGUUUCCCUCAAGAAAATT against Tgfbr3, which z-score is on record?
The z-score was inactive: 0.478.

With GGACAGGAAAAUACUCAGATT against Nat8f5 as the sequence, how does the z-score read?
Its z-score is inactive: 0.0278.

With CCCUAAAUUAGCACAGUUUTT against Them7 as the sequence, how does the z-score read?
The z-score was inactive: 1.64.

For “GCUCACAGCAGCAUUUUACTT against 1700034H15Rik”, which z-score is on record?
Its z-score is active: -2.48.
